We go through 61 compounds from PubChem BioAssay AID2685 (National Center for Advancing Translational Sciences (NCATS), 2010).

This experiment is described as follows: qHTS Assay for Lipid Storage Modulators in Drosophila S3 Cells.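 For cell number change: cells counted by Cell Tracker Red CMTPX staining in the red channel.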 The note with it: BODIPY lipid droplet fluorescence, 18-24 h; for cell number change: measured here: cell count max response, cells fed with added oleic acid. The procedure, abridged:
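Drosophila S3 cells got compounds at several concentrations plus oleic acid (400 uM solution). Laser-scanning cytometry with 488 nm excitation read lipid droplets at 500-530 nm and cells at 575-640 nm. Percent activity was relative to 20 uM Triacsin C.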

Setting [1] is: measured here: cell number channel AC50, cells fed with added oleic acid.
Setting [2] is: measured here: lipid fluorescence (Fed channel) AC50, cells fed with added oleic acid.

Broadly, the AC50 is the concentration at which the activity in the assay is half-maximal.

Structures are written as SMILES. The list shows a part of the results. Further columns of the screen follow, without active or inactive calls. The list favours compounds with an active or inconclusive main result. Words in brackets tell the shape of the fitted curve; partial curves, single points and poor fits give uncertain potencies.

With `CC(C)COc1ccc(/C(O)=C2/C(=O)C(=O)N(CCN(C)C)C2c2ccncc2)cc1` (configuration not stated), the cell number change was found to be 3.64%. Moreover, the AC50 under setting [1] was 0.461 µM [falling, full curve, poor fit]. In addition, the AC50 under setting [2] was 0.366 µM [falling, full curve].

On to `Cc1cc(C)n(-c2ccc(C(=O)OCC(=O)NC(c3ccccc3)c3ccccc3)cc2)n1`, for which the cell number change was -5.31%.

As to `Cc1nnc(NC(=O)C2CCCN2S(=O)(=O)c2ccc(Cl)cc2)s1` (configuration not stated), the AC50 under setting [1] is 0.146 µM [falling, full curve, poor fit] and the AC50 under setting [2] is 29.1 µM [falling, single point].

As for `COc1cc(/C=C2\SC(=S)N(NS(=O)(=O)c3ccc(C)cc3)C2=O)cc(OC)c1OC`, the cell number change was -2.77%. Further, the AC50 under setting [1] was 1.84 µM [rising, partial curve, poor fit].

For the compound `COc1cc2c(C(=O)N3CCN(c4ccccc4F)CC3)cn(C)c(=O)c2cc1OC`, the cell number change is -1.2%. The AC50 under setting [1] is 2.31 µM [rising, partial curve]. Further, the AC50 under setting [2] was 2.31 µM [rising, full curve, poor fit].

Consider `COc1cccc(N(C(=O)c2snc(C(N)=O)c2N)C(C(=O)NCC2CCCO2)c2cccs2)c1` (configuration not stated), for which the cell number change was -7.98%.

For the compound `c1csc(-c2nnc(COc3ccc4c(c3)OCO4)o2)c1`, the cell number change worked out at 8.74%.

Consider `Nc1nc(SCC(=O)Nc2ccccc2-c2ccccc2)n[nH]1`, for which the AC50 under setting [1] is 2.91 µM [rising, single point].

With `O=C(NC1CCCC1)c1cc(-c2ccccc2)nc2ccccc12`, the cell number change was -8.01%.

In the case of `CC(Oc1ccccc1)C(=O)NC1=NCCS1` (configuration not stated), the cell number change was 14.3%. Besides, the AC50 under setting [2] was 35.5 µM [rising, single point].

Regarding `CCOC(=O)c1cccc(NC(=O)C2CCCN(S(=O)(=O)c3cnc[nH]3)C2)c1` (configuration not stated), the cell number change is 19.5%. Besides, under setting [2], the AC50 was 0.184 µM [rising, full curve, poor fit].

On to `CC(NS(=O)(=O)c1ccc(OCC(=O)Nc2cccc([N+](=O)[O-])c2)cc1)c1ccccc1` (configuration not stated), for which the cell number change is 53.1%. The AC50 under setting [1] was 18.4 µM [rising, single point]. Further, the AC50 under setting [2] was 3.26 µM [rising, partial curve].

On to `O=C1OCC(c2ccccc2)=C1c1ccc(S(=O)(=O)N2CCOCC2)s1`, for which the cell number change was determined as 5.35%.

In the case of `CCCCCc1cc(=O)oc2c(C(CCN3CCCC(C)C3)c3ccc(OC)cc3)c(OC)cc(OC)c12` (configuration not stated), the cell number change is -77.6%. For the same compound, the AC50 under setting [1] is 29.1 µM [falling, single point].

In the case of `O=C(NCc1ccco1)C1CCCN(c2ncnc3c2nc2n3CCCCC2)C1` (configuration not stated), the cell number change was -2.29%. Also, under setting [2], the AC50 is 3.66 µM [rising, single point].

`CCOC(=O)C1CCN(C(=O)c2cn(-c3ccccc3)nc2-c2cccnc2)CC1`: the cell number change is 2.83%.

Regarding `Cc1ccc(SCC(=O)Nc2cc(C)on2)cc1`, the cell number change was 21.5%. The AC50 under setting [2] is 0.517 µM [falling, full curve, poor fit].

In the case of `CCOC(=O)c1ccc(NC(=O)C2CCCN(S(=O)(=O)c3cnc[nH]3)C2)cc1` (configuration not stated), the cell number change is 13.3%. The AC50 under setting [2] is 0.58 µM [rising, full curve, poor fit].

`COc1ccc(N2CCN(C(=O)CCc3nnc4ccc(N5CCC(C)CC5)nn34)CC2)cc1`: the cell number change was -51%. The AC50 under setting [1] is 32.6 µM [falling, partial curve, poor fit]. Further, under setting [2], the AC50 is 23.1 µM [falling, single point].

For the compound `Cc1cc(=O)c2cc(C(=O)c3ccccc3)ccc2[nH]1`, the cell number change is -21.6%. The AC50 under setting [2] was 0.259 µM [falling, full curve, poor fit].

Turning to `CCOC(=O)N/N=C(\C)c1ccc(-n2cnnn2)cc1`, the cell number change stood at 44%. In addition, the AC50 under setting [1] was 0.291 µM [rising, single point].

With `C/C(=C\C(=O)c1ccc(Br)cc1)NCc1ccc2c(c1)OCO2`, the concentration at half-maximal activity (AC50) under setting [2] was 25.9 µM [falling, partial curve].

As for `O=C(CCl)Nc1ccc(S(=O)(=O)Nc2nccs2)cc1`, the cell number change was -12.8%. Besides, the AC50 under setting [2] is 3.66 µM [rising, partial curve, poor fit].

Consider `CC1CCC(NC(=O)Cn2c(=O)oc3cc(S(=O)(=O)N4CCCC4)ccc32)CC1` (configuration not stated), for which the cell number change was 16.8%. The AC50 under setting [2] was 11.6 µM [falling, partial curve].

Regarding `CC(=O)c1cc(NC(=O)c2cccc(C(F)(F)F)c2)c(=O)oc1/C=C/N(C)C`, the AC50 under setting [2] was 29.1 µM [rising, single point].

With `CCOC(=O)c1cccc(NC(=O)c2ccc3c(c2)C(=O)N(CC2CCCO2)C3=O)c1` (configuration not stated), the cell number change was -23.4%. Further, under setting [2], the AC50 is 6.51 µM [falling, full curve].

As to `Cc1ccc(-c2cc(C(=O)N3CC(C)CC(C)C3)c3ccccc3n2)o1` (configuration not stated), the cell number change is -14.3%.

`COc1ccc(C(=O)Nc2cnccn2)cc1[N+](=O)[O-]`: the cell number change is 6.03%.

Consider `Brc1ccc(-c2nc(-c3ccccc3)no2)o1`, for which the cell number change was 219%. Moreover, under setting [1], the AC50 is 18.4 µM [rising, partial curve]. Moreover, the AC50 under setting [2] is 20.6 µM [rising, partial curve].

On to `O=C(COC(=O)c1ccc(Br)o1)Nc1cccc(S(=O)(=O)N2CCCCCC2)c1`, for which the cell number change was determined as 78%. For the same compound, the AC50 under setting [1] was 20.6 µM [rising, single point]. For the same compound, the concentration at half-maximal activity (AC50) under setting [2] was 29.1 µM [rising, single point].

In the case of `Cc1cc(C)c(C#N)c(SCc2ccc3c(c2)OCO3)n1`, the cell number change came out at 0.947%. Besides, the AC50 under setting [2] is 1.84 µM [rising, full curve].

`CCC(=O)N1CCc2cc(Br)cc(S(=O)(=O)NCc3ccco3)c21`: the cell number change is -58.5%. The half-maximal activity concentration (AC50) under setting [1] is 29.1 µM [falling, single point]. Moreover, under setting [2], the AC50 is 29.1 µM [falling, single point].

For `COC(=O)c1cnn(C(=O)c2cc(OC)ccc2Br)c1N`, the cell number change is -13.5%. Further, the AC50 under setting [1] is 0.411 µM [rising, single point].

For `O=C(Cn1nnc(-c2ccccc2)n1)NC(=O)NC1CCCC1`, the cell number change was found to be 21.9%.

As for `O=C(N=C1c2ccccc2CN1c1ccccc1)c1cccc([N+](=O)[O-])c1`, the cell number change was determined as 29.3%. Moreover, the half-maximal activity concentration (AC50) under setting [1] is 2.91 µM [rising, full curve, poor fit]. Moreover, the AC50 under setting [2] is 0.103 µM [rising, full curve, poor fit].

Turning to `O=C(N/N=C\c1ccc(F)cc1)c1ccc(Cn2cc(Br)c([N+](=O)[O-])n2)o1`, the cell number change was found to be 15.8%. The AC50 under setting [2] is 18.4 µM [rising, single point].

Take `Cc1ccc(NC(=S)N2CCC(N(C)CC3CCCO3)CC2)c(C)c1` (configuration not stated): the cell number change was found to be 2.11%. Under setting [2], the AC50 is 0.13 µM [falling, full curve, poor fit].

In the case of `COc1ccc2[nH]c(=O)c(CN(C(=O)c3cccnc3)c3ccccc3)cc2c1`, the cell number change was 25.2%. Further, the AC50 under setting [2] was 8.2 µM [rising, partial curve].

For `CCn1nc(C(=O)N[C@@H](CCSC)c2nc3ccccc3[nH]2)c2ccccc2c1=O`, the AC50 by setting is: under setting [1], 6.51 µM [rising, single point]; under setting [2], 8.2 µM [rising, partial curve].

Take `CCOC(=O)c1c(-c2ccccc2)[nH]c2ccc(O)cc12`: the cell number change was -4.33%. Besides, the AC50 under setting [2] is 18.4 µM [rising, single point].

Consider `COc1ccc(CCNC(=O)CSc2nnc(-c3ccccc3)o2)cc1OC`, for which the cell number change is -12%.

For `COc1cc([N+](=O)[O-])ccc1NC(=O)NNC(=O)C(C)Oc1ccc(F)cc1F` (configuration not stated), the cell number change amounted to 18.1%. The AC50 under setting [2] is 35.5 µM [rising, single point].

As for `CCOC(=O)c1ccc(NC(=S)N(CCN(C)C)Cc2cccs2)cc1`, the cell number change came to 76.1%. In addition, the AC50 under setting [1] was 2.31 µM [rising, full curve].

Turning to `O=C(COC(=O)c1ccc(Cl)c(S(=O)(=O)N2CCCC2)c1)NC1CCCCC1`, the cell number change is 52.8%.

Regarding `COc1ccc(-c2ccc(NS(=O)(=O)c3cc([N+](=O)[O-])ccc3C)cc2)nn1`, the cell number change was -11.6%. Also, the AC50 under setting [2] was 20.6 µM [rising, single point].

With `Cc1ccc(S(=O)(=O)N(C)C)cc1NC(=O)COC(=O)c1n[nH]c(=O)c2ccccc12`, the cell number change came to 37.4%.

As to `CC(=O)c1sc(NC(=O)CCS(=O)(=O)c2ccc(Cl)cc2)nc1C`, the AC50 under setting [1] was 2.31 µM [rising, partial curve].

For the compound `COC(CNC(=O)C1CCCN(S(=O)(=O)c2c(C)noc2/C=C/c2cccs2)C1)OC` (configuration not stated), the cell number change is -19%. Also, the AC50 under setting [2] is 1.84 µM [falling, partial curve].

Consider `CC(=O)c1cccc(NC(=O)Cn2cnc(S(=O)(=O)N3CCC(C)CC3)c2)c1`, for which the cell number change is 21.9%.

In the case of `CSc1nc2ccccc2n1Cc1cccc([N+](=O)[O-])c1`, the cell number change was -31.5%. Further, the AC50 under setting [1] was 29.1 µM [falling, single point].

Consider `CS/C(=N\N(C)C(N)=O)c1ccccc1`, for which the cell number change was -18.2%. Moreover, the AC50 under setting [2] is 0.00517 µM [falling, full curve, poor fit].

Take `COC(=O)/C=C1/N/C(=N\c2nc(C)cc(C)n2)N(c2cccc(C)c2)C1=O`: the cell number change is -2.01%. In addition, the AC50 under setting [2] was 0.184 µM [falling, full curve, poor fit].

Turning to `O=C(CSc1nnc2c(Cl)cc(Cl)cn12)NC1CCS(=O)(=O)C1` (configuration not stated), under setting [2], the AC50 is 0.58 µM [rising, full curve, poor fit].

On to `COc1cc(CNCc2ccccn2)ccc1OCc1c(Cl)cccc1Cl`, for which the cell number change is -11.6%.

As to `CCCCC(=O)N1C/C=C\C(c2ccc(OC)cc2)N(Cc2ccc(F)cc2)C(=O)C1` (configuration not stated), the cell number change was 0.955%. Under setting [2], the concentration at half-maximal activity (AC50) was 29.1 µM [falling, single point].

For `CCCCCCOc1ccc(OC(=O)c2cccnc2)cc1`, the cell number change is -15.2%. Under setting [2], the AC50 was 4.11 µM [rising, single point].

In the case of `O=C(CCn1c(=O)oc2ccccc21)Nc1ccccc1`, the cell number change stood at 20.2%. Further, under setting [2], the AC50 was 25.9 µM [rising, single point].

Take `Cc1cc(C)c(NC(=O)CSc2nnc(-c3ccccn3)n2N)c(Cl)c1`: the cell number change came out at 13%. Further, the half-maximal activity concentration (AC50) under setting [2] is 0.116 µM [rising, full curve, poor fit].

As for `Cc1ccc(S(=O)(=O)N(C)CC(=O)N2CCN(Cc3ccc4c(c3)OCO4)CC2)cc1`, the cell number change is 13.5%. Further, the AC50 under setting [2] is 11.6 µM [falling, single point].

`O=C(COC(=O)c1ccc[nH]c1=O)NCCCc1ccccc1`: the cell number change amounted to 19.7%. Moreover, the AC50 under setting [2] is 6.51 µM [falling, single point].

Consider `N#CCCN1CCN(S(=O)(=O)c2ccc(S(=O)(=O)NCc3ccccc3)cc2)CC1`, for which the cell number change was -36.2%. The AC50 under setting [1] was 29.1 µM [falling, single point]. Also, under setting [2], the AC50 was 20.6 µM [falling, single point].
